Results reported in article PMC5082905, “Identification of Residues in the Lipopolysaccharide ABC Transporter That Coordinate ATPase Activity with Extractor Function” (mBio, 2016).
These are yes or no findings as the source states them, for the method shown. Some entries that bind do so weakly or less than the wild type.

T1: LptG (E. coli) (UniProt P0ADC6)
T1 sequence: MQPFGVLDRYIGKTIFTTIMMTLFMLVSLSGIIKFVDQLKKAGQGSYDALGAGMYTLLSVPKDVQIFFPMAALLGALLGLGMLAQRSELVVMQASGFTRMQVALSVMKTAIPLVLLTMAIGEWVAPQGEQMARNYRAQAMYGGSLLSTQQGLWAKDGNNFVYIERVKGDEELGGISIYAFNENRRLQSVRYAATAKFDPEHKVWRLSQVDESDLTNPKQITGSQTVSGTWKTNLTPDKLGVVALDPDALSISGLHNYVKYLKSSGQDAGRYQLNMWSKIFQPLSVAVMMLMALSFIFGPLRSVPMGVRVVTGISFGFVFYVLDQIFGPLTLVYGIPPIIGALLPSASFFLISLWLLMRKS

T2: LptF (E. coli) (UniProt P0AF98)
T2 sequence: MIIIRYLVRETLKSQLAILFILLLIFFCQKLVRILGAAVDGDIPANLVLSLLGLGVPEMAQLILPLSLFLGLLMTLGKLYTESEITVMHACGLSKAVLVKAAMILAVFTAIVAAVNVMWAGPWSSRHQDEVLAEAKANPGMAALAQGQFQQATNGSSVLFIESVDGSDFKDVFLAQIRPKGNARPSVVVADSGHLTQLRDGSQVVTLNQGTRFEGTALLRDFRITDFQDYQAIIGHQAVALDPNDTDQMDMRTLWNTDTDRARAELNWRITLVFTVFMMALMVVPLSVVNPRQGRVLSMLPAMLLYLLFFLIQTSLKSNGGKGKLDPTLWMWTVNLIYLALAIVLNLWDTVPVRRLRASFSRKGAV


Tests used:
LptG (E. coli) = molecular target: T1, LptG (E. coli); experiment: affinity co-purification; LptB2FG-LptC-His7 complex variants purified from E. coli through LptC-His7; Coomassie blue-stained denaturing gel
LptF (E. coli) = molecular target: T2, LptF (E. coli); experiment: as above

Binder | binding (LptG (E. coli)) | binding (LptF (E. coli))
LptB^WT (enzyme, E. coli, UniProt P0A9V1 1-241, looked up) MATLTAKNLAKAYKGRRVVEDVSLTVNSGEIVGLLGPNGAGKTTTFYMVVGIVPRDAGNIIIDDDDISLLPLHARARRGIGYLPQEASIFRRLSVYDNLMAVLQIRDDLSAEQREDRANELMEEFHIEHLRDSMGQSLSGGERRRVEIARALAANPKFILLDEPFAGVDPISVIDIKRIIEHLRDSGLGVLITDHNVRETLAVCERAYIVSQGHLIAHGTPTEILQDEHVKRVYLGEDFRL | binds | binds
LptB^R91S (enzyme, UniProt P0A9V1 1-241) MATLTAKNLAKAYKGRRVVEDVSLTVNSGEIVGLLGPNGAGKTTTFYMVVGIVPRDAGNIIIDDDDISLLPLHARARRGIGYLPQEASIFSRLSVYDNLMAVLQIRDDLSAEQREDRANELMEEFHIEHLRDSMGQSLSGGERRRVEIARALAANPKFILLDEPFAGVDPISVIDIKRIIEHLRDSGLGVLITDHNVRETLAVCERAYIVSQGHLIAHGTPTEILQDEHVKRVYLGEDFRL | binds | binds
